Data published in patent US9029076B2, “Tissue preservation and fixation method” (George Mason Research Foundation, Inc., priority 2006, dated 2015).

Tested on: frozen tissue section
Assay: Cutting of frozen tissue sections after fixation in candidate solutions
Settings: for ability to allow the cutting of frozen sections or microdissection, and to achieve phosphoprotein stability: FIG. 5

Compound	ability to allow the cutting of frozen sections or microdissection, and to achieve phosphoprotein stability	further results
CC(C)=O [Acetone]	do not function well	–
CO [10% methanol in water, methanol]	freezing is not impeded, frozen sections can be cut, and histology is acceptable for LCM	–
CCO [ethanol]	do not function well	–
CO [85% methanol, methanol]	–	suitability for freezing (third study, high percentage of fixative acting as anti-freeze): unsuitable for freezing
Polyethylene glycol (PEG 400)	–	Successful cutting frozen tissue section (tissue fixed in the chemical with stated diluent and additives): No
